Measurements reported in PubChem BioAssay AID686937 (Drosophila RNAi Screening Center, 2013).
In all, the deposit lists about 23,000 reagents; shown is an unselected part of those with a known target gene and a result. 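Reduced-secretion tags in replicate 1 do not always agree with the z-scores; no criterion for assigning the tags was given.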 A plus sign joins genes that one reagent is predicted to hit. Not all columns of the deposit are shown. The record does not give: the amount of reagent.

Purpose: 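Genes whose loss weakens secretory pathway function in fly cells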 (primary screen)
Cells: Drosophila S2 cells expressing secreted horseradish peroxidase
Reagent: long dsRNA against Drosophila genes
Duration: about 5.5 days (5 days dsRNA, then 12 h reporter induction)
Treatment: reporter expression induced after 5 days of dsRNA, read 12 h later; inducer not stated
Measured: 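After 5 days of dsRNA and 12 h of reporter induction, medium peroxidase read by chemiluminescence and scored as per-plate z-score; higher values mean more reporter released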
Direction: z-score: higher = more reporter secreted into medium

z-score, replicate 1, by target gene and reagent
Nop56: DRSC14699 0.06
CG10165: DRSC02017 0.35
Gr98d: DRSC14571 0.12
CG11050: DRSC02125 -0.09
CR30029: DRSC06724 0.26
CG31639: DRSC00910 0.01
CG8939: DRSC20127 0.31
exd: DRSC20330 0.13
Nubp2: DRSC11758 0.46
CG6178: DRSC15984 0.5
CG7763: DRSC07043 0.35
Dhc64C: DRSC08656 0.23
CG31031 (retired record): DRSC13964 0.2
E(spl)mbeta-HLH: DRSC16697 0.65
Glut3: DRSC16681 0.36
CG13723: DRSC10052 0.34
CG18605: DRSC06772 0.39
CG18368: DRSC06731 0.3
nesd: DRSC02099 0.23
Lcp65Ab2 + Lcp65Ab1: DRSC10340 0.31; DRSC10343 0.19
comm3: DRSC09993 0.29; DRSC09994 0.03; DRSC09995 0.57
pip: DRSC11382 0.3
cathD: DRSC07588 0.28
CG4520: DRSC15590 0.39
AstC: DRSC02403 0.03
CG14860: DRSC14983 0.58
CG6695: DRSC16098 0.34
CAH14: DRSC04234 0.01; DRSC22160 -0.07
HemK1: DRSC03253 0.32
mino: DRSC14132 0.25
CG6180: DRSC02937 0.46
CG12617: DRSC02176 0.32
dmGlut: DRSC02835 0.1

Reformatted: results already given
| Target gene | amplicon | z-score, replicate 1 |
| --- | --- | --- |
| CG8939 | DRSC20127 | 0.31 |
| exd | DRSC20330 | 0.13 |
| Nubp2 | DRSC11758 | 0.46 |
| CG6178 | DRSC15984 | 0.5 |

Continued.
z-score, replicate 1, by target gene and reagent
Vha68-3: DRSC02809 0.8
kairos: DRSC19972 0.32
Ir60a: DRSC04212 0.12
Jon66Ci: DRSC10772 0.13
CG11658: DRSC09852 -0.09
intr: DRSC14528 -0.06
CG1638: DRSC15132 0.2
psidin: DRSC15660 0.3
Polr1F: DRSC02278 0.22
CG33773: DRSC14032 0.31
ph-d: DRSC18819 -0.22
CG15020: DRSC08474 0.13
DUBAI + Tmem18: DRSC05344 0.56
CG15385: DRSC00399 0.14
CG4293: DRSC18557 0.24
CG33288: DRSC11484 0.84
Ehbp1: DRSC06561 0.33
Or98b: DRSC16775 0.42; DRSC21751 -0.31
